# According to PubChem BioAssay AID720504 (National Center for Advancing Translational Sciences (NCATS), 2013):
# Amino acid sequences for entries named in this document (tags omitted).
# UniProt P53350, whole entry, looked up: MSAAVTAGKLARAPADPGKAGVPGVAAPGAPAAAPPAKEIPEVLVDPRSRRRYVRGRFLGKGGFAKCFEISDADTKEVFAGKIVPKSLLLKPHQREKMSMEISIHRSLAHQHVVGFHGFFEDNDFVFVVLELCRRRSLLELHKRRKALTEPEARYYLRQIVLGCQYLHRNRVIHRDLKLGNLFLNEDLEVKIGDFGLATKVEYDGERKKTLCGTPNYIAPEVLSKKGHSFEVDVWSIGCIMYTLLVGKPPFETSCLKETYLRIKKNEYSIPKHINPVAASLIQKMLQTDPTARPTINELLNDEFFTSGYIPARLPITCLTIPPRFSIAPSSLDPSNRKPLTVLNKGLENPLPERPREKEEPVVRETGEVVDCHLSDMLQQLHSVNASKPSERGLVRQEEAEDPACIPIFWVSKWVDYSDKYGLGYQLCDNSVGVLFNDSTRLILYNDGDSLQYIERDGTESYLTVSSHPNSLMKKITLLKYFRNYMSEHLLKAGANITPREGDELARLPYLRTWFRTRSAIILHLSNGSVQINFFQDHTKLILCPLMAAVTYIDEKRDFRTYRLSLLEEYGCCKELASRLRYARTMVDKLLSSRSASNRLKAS
# Out of some 360,000 compounds screened, about 10,000 (2.8%) were called active. Inconclusive means that the source gave no clear call. Such entries were picked first, then a sample of the others. Calls follow the shape of the dose curve; as a rule, active = well fitted inhibition curve with a large enough effect; inconclusive = small, poorly fitted or top-dose-only effect; inactive = flat fitted curve, though single readings scatter. Where the call is inconclusive, the potency comes from a doubtful curve fit.
# Target: Serine/threonine-protein kinase PLK1 (Homo sapiens) (UniProt P53350)
# Test: qHTS for Inhibitors of PLK1-PDB (polo-like kinase 1 - polo-box domain): Primary Screen; also: nearly all actives have a fitted effect of over 65% in size; as to max response, negative = inhibition: series mostly up to about 57 µM
# Conditions: Plk1 PBD binding of FITC phosphopeptide, fluorescence polarization
# % is scaled to controls: 0 for no effect and ±100 for the full control effect; potency is read from the fitted curve at half-maximal effect.
Compound,Potency,"max response, negative = inhibition"
O=[N+]([O-])c1cc(-c2ccc(C(=S)N3CCOCC3)o2)ccc1Cl,active: 2.67 µM,–
COc1ccc(C(C(=O)NC2CCCCC2)N(C(=O)CCl)c2cccc(Cl)c2)cc1 (stereo not drawn),–,inactive: -13.3%
COCc1nnc(NC(=O)c2ccc(Cl)cc2[N+](=O)[O-])s1,"inconclusive: 26.7 µM [inhibitor, partial curve]",–
O=C(O)c1cc(=O)cc(C(=O)O)[nH]1,–,inactive: -10.7%
CCCCOC(=O)Nc1cc(C)c(Cl)cc1OC,"inconclusive: 23.8 µM [inhibitor, single point]",–
COc1ccc(C(C)(C)C)cc1NS(=O)(=O)c1cccc2cccnc12,–,inactive: -1.96%
Cc1ccc(Cc2c(C)c(C#N)c3[nH]c4ccccc4n3c2=O)cc1,–,inactive: -29.4%
C#CCn1cc(C=C2C(=O)c3ccccc3C2=O)c2ccccc21,"inconclusive: 11.9 µM [inhibitor, partial curve]",–
Cc1ccc(N2C(=O)[C@@H]3[C@H](C2=O)C2c4ccccc4C=CN2[C@@H]3C(=O)c2ccco2)cc1 (stereo partly drawn),"inconclusive: 29.9 µM [inhibitor, partial curve]",–
CC(=O)c1ccc(NS(=O)(=O)c2ccc(N/C=C/C(=O)c3ccc(F)cc3)cc2)cc1,active: 16.8 µM,–
COC(=O)CCCc1nc2ccccc2s1,"inconclusive: 26.7 µM [inhibitor, partial curve]",–
CCCS(=O)(=O)c1ncc(Cl)c(C(=O)Nc2ccc(S(=O)(=O)Nc3ncccn3)cc2)n1,"inconclusive: 26.7 µM [inhibitor, single point]",–
CC1CC2=C(NC(=S)NC2c2ccccc2F)/C(=C/c2ccccc2F)C1 (stereo not drawn),"inconclusive: 23.8 µM [inhibitor, partial curve]",–
COC(=O)N1C(=O)[C@@](Cc2ccccc2)(c2ccccc2)N1C(=O)OC,active: 29.9 µM,–
O=C(CCCN1C(=O)/C(=C/c2ccccc2Cl)SC1=S)N1CCOCC1,–,inactive: -16.5%
CCOc1ccc(C2C(C(=O)c3ccco3)=C(O)C(=O)N2Cc2cccnc2)cc1 (stereo not drawn),"inconclusive: 23.8 µM [inhibitor, partial curve]",–
CC1=C(C(=O)OCC(C)C)C(c2cccs2)NC(=S)N1 (stereo not drawn),"inconclusive: 11.9 µM [inhibitor, partial curve]",–
O=C(CSc1ccc(F)cc1)Nc1cccc(S(=O)(=O)N2CCOCC2)c1,"inconclusive: 29.9 µM [inhibitor, partial curve]",–
Cc1ccccc1C(=O)NNC(=O)c1cccc([N+](=O)[O-])c1,"inconclusive: 42.3 µM [inhibitor, partial curve, poor fit]",–
COc1ccccc1C(=O)Nc1nc(-c2ccc(S(=O)(=O)N3CCOCC3)cc2)cs1,"inconclusive: 29.9 µM [inhibitor, partial curve]",–
COC(=O)c1ccccc1NC(=S)NC(=O)COc1ccccc1Cl,–,inconclusive: -32.2% [inhibitor]
CCCOc1cccc(NC(=O)c2cc(C)oc2C)c1,"inconclusive: 23.8 µM [inhibitor, single point]",–
CC1NC(C)c2c(ccc3ccccc23)O1 (stereo not drawn),–,inconclusive: -35.1% [inhibitor]

Compound,Potency,"max response, negative = inhibition"
CC1CN2C(c3ccc([N+](=O)[O-])cc3)=CSC2=N1 (stereo not drawn),"inconclusive: 26.7 µM [inhibitor, partial curve]",–
O=C(c1ccco1)[C@@H]1[C@@H]2C(=O)N(c3ccc(F)cc3)C(=O)[C@@H]2[C@H]2C=Cc3ccccc3N21,"inconclusive: 37.7 µM [inhibitor, partial curve, poor fit]",–
C[C@@H]1CCCCO[C@H](CN(C)Cc2ccc(C(=O)O)cc2)[C@@H](C)CN([C@H](C)CO)C(=O)c2cc(N(C)C)ccc2O1,"inconclusive: 23.8 µM [inhibitor, single point]",–
Cc1csc(SCC(=O)N2CCN(S(=O)(=O)c3ccc(Cl)cc3)CC2)n1,"inconclusive: 29.9 µM [inhibitor, partial curve]",–
O=C(CCS(=O)(=O)c1ccccc1)Nc1nc2ccc(F)cc2s1,–,inconclusive: -30.9% [inhibitor]
CCN1CC=C2C(C#N)=C(N)C(C#N)(C#N)[C@H](c3cccc(OC)c3OC)[C@H]2C1,"inconclusive: 28.2 µM [inhibitor, partial curve]",–
CCOc1ccc(-n2c(=S)sc3c(=O)[nH]c(SCC(=O)N4CCC(C)CC4)nc32)cc1,"inconclusive: 23.8 µM [inhibitor, single point]",–
Cc1ccc(-n2c(=O)[nH]c3c(C(N)=O)nc(-c4ccc(C)o4)nc32)cc1,–,inactive: -13%
COc1ccccc1NC(=O)CCNS(=O)(=O)c1ccc2c(c1)CC(C)N2C(=O)C1CC1 (stereo not drawn),"inconclusive: 16.8 µM [inhibitor, partial curve]",–
C[C@H]1CCC/C=C/[C@@H]2C[C@H](O)C[C@H]2[C@H](O)[C@H](S(=O)c2ccc(O)cc2)CC(=O)O1 (stereo partly drawn),active: 10.6 µM,–
COC(=O)c1ccc(NC(=S)Nc2ccc(O)cc2)cc1,"inconclusive: 23.8 µM [inhibitor, single point]",–
NC(=O)c1cc2ccc(O)cc2oc1=NCc1ccccc1,active: 11.9 µM,–
Cc1ccc2c(c1)nnn2C1CCN(CC(=O)c2ccc(Cl)cc2)CC1,–,inactive: -17.3%
Cn1c(=O)c2c(ncn2Cc2ccccc2)n(C)c1=O,active: 26.7 µM,–
CCOc1ccc(Nc2nc3cc(S(=O)(=O)CC)ccc3o2)cc1,"inconclusive: 29.9 µM [inhibitor, partial curve]",–
Cc1nn(Cc2cccc(C(=O)Nc3ccn(Cc4ccccc4F)n3)c2)c(C)c1[N+](=O)[O-],–,inactive: -4.02%
NNc1nc2cccnc2n(CCNc2ncc(C(F)(F)F)cc2Cl)c1=O,–,inconclusive: -30.6% [inhibitor]
COCCn1c(SCCN2CCCCC2)nc2ccccc2c1=O,–,inactive: -6.79%
Cc1cc(=O)oc2ccc(OC(=O)CN3C(=O)c4cccc([N+](=O)[O-])c4C3=O)cc12,"inconclusive: 29.9 µM [inhibitor, single point]",–
NC(=S)Cc1nc2n(n1)Cc1ccccc1-2,"inconclusive: 29.9 µM [inhibitor, partial curve]",–
CC(C)Cn1c(N)c(C(=O)COC(=O)c2cc(-c3ccco3)nc3ccccc23)c(=O)n(C)c1=O,"inconclusive: 21.2 µM [inhibitor, partial curve]",–
COc1ccc(NS(=O)(=O)c2cccc(C(=O)NN=Cc3cc(Br)c(O)c(Br)c3)c2)cc1,–,inconclusive: -30.8% [inhibitor]
COc1ccc(OC)c(CCNC(=O)c2ccc3c(=O)[nH]c4c(C(=O)NC(C)C)sc(=S)n4c3c2)c1,"inconclusive: 29.9 µM [inhibitor, partial curve]",–

# In the list so far, these contain a cyano group.
Compound,Potency,"max response, negative = inhibition"
Cc1ccc(Cc2c(C)c(C#N)c3[nH]c4ccccc4n3c2=O)cc1,–,inactive: -29.4%
CCN1CC=C2C(C#N)=C(N)C(C#N)(C#N)[C@H](c3cccc(OC)c3OC)[C@H]2C1,"inconclusive: 28.2 µM [inhibitor, partial curve]",–

# Further compounds

Compound,Potency,"max response, negative = inhibition"
Cc1ccc(CN(C)C(=O)c2cc(COc3cccc(C(F)(F)F)c3)on2)o1,"inconclusive: 29.9 µM [inhibitor, partial curve]",–
Cc1cccc(N(C)S(=O)(=O)c2ccc3c(c2)C(C)(C)C(=O)N3C)c1,–,inactive: -9.32%
COc1cccc2cc(C(=O)CS(=O)(=O)c3ccc(Cl)cc3)c(=O)oc12,active: 16.8 µM,–
O=C1CC(Sc2ncn[nH]2)C(=O)N1c1ccccc1 (stereo not drawn),"inconclusive: 21.2 µM [inhibitor, single point]",–
CCn1nc(NC(=O)C(C)C)c2cc3cccc(C)c3nc21,"inconclusive: 23.8 µM [inhibitor, single point]",–
O=C(Cn1ncc2c(=O)oc3ccccc3c21)NC1CC1,"inconclusive: 3.36 µM [inhibitor, full curve]",–
COc1cc2ccccc2cc1C(=O)N/N=C/c1cccs1,–,inactive: -4.61%
N#Cc1cnc(Sc2ccccc2)nc1,active: 29.9 µM,–
O=C(O)c1ccc(N/N=C/c2ccc(-c3ccccc3Cl)o2)cc1,"inconclusive: 23.8 µM [inhibitor, partial curve]",–
CC1(C)CC(=O)C2=C(C1)N(N1CCOCC1)C(N)=C(C#N)C2c1cccs1 (stereo not drawn),"inconclusive: 23.8 µM [inhibitor, single point]",–
CCCc1cc(=O)[nH]c(SCC(=O)N2CCCc3ccccc32)n1,active: 21.2 µM,–
Nc1ccc(SCc2cccnc2)cc1,"inconclusive: 29.9 µM [inhibitor, partial curve]",–
COc1ccc(-c2cc(C(F)(F)F)nc(S(=O)(=O)CCCC(=O)Nc3cccc(O)c3)n2)cc1OC,–,inactive: -25.8%
N#Cc1nc(-c2ccc(F)cc2)oc1N1CCCCC1,–,inactive: 4.86%
O=C(NCc1ccccn1)Nc1ccc(Br)cc1Cl,–,inconclusive: -26.6% [inhibitor]
CS(=O)(=O)C1=NSC2=NC(=O)/C(=C\c3cccn3-c3ccc(Cl)cc3)C(=N)N21,active: 21.2 µM,–
Nc1ccc2c(c1)[nH]c(=O)c1cc(N)ccc12,"inconclusive: 33.6 µM [inhibitor, single point]",–
COc1ccc(CCNC(=O)COc2ccccc2[N+](=O)[O-])cc1OC,"inconclusive: 33.6 µM [inhibitor, partial curve]",–
COCCCC1CCN(C(=O)c2cc(COc3ccc(C)nc3)on2)CC1,–,inactive: 3.41%
COc1ccc([N+](=O)[O-])cc1N(CC(O)CN1CCOCC1)S(=O)(=O)c1ccccc1 (stereo not drawn),"inconclusive: 10.6 µM [inhibitor, partial curve]",–
O=C(CN1CCOCC1)Nc1ccc2c(c1)OCCO2,–,inactive: -0.371%
O=C1CCCCC1Sc1nnc(Cc2cccs2)n1CCc1ccccc1 (stereo not drawn),"inconclusive: 26.7 µM [inhibitor, partial curve]",–
